In patent publication US20170029507A1 (IMAGINAB, published 2017):
These are yes or no findings as the source states them, for the method shown. Some entries that bind do so weakly or less than the wild type.

By UniProt entry, the sequences of proteins in these tests, tags left out. Where a name states a change or a piece, a line headed by the entry shows the natural chain unless it says otherwise.
UniProt P01732: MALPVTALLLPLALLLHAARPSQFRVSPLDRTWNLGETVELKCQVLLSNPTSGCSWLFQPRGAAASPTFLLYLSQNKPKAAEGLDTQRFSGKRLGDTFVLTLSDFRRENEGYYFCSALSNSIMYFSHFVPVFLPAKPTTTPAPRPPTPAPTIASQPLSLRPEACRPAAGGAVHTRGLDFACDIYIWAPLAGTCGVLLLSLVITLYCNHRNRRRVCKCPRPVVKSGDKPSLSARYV

How the values were obtained:
[1] = molecular target: cellular human CD8 (human) (UniProt P01732); assay: flow cytometry, CD8+ cells, transfection supernatant at several dilutions, APC anti-human IgG (Fc-specific)
[2] = molecular target: purified recombinant human CD8 protein (human) (UniProt P01732); assay: SPR, soluble CD8; SPR analysis, soluble CD8; binds with several-fold loss in affinity vs chimeric minibody and parental OKT8
[3] = molecular target: cellular human CD8 (human) (UniProt P01732); assay: flow cytometry on CD8+ cells, transfection supernatants, anti-human IgG Fc-APC

Measured: binding

B1: Humanized IAb_Mb1_CD8 (protein)
chain: DVQITQSPSSLSASVGDRVTITCRTSRSISQYLAWYQQKPGKVPKLLIYSGSTLQSGVPSRFSGSGSGTDFTLTISSLQPEDVATYYCQQHNENPLTFGGGTKVEIKGSTSGGGSGGGSGGGGSSQVQLVQSGAEVKKPGATVKISCKVSGFNIKDTYIHWVQQAPGKGLEWMGRIDPANDNTLYASKFQGRVTITADTSTDTAYMELSSLRSEDTAVYYCARGYGYYVFDHWGQGTLVTVSSEPKSCDKTHTCPPCGGGSSGGGSGGQPREPQVYTLPPSRDELTKNQVSLTCLVKGFYPSDIAVEWESNGQPENNYKTTPPVLDSDGSFFLYSKLTVDKSRWQQGNVFSCSVMHEALHNHYTQKSLSLSPGK
binds: all assays above

B2: Humanized IAb_Mb2_CD8 (protein)
chain: QVQLVQSGAEVKKPGATVKISCKVSGFNIKDTYIHWVQQAPGKGLEWMGRIDPANDNTLYASKFQGRVTITADTSTDTAYMELSSLRSEDTAVYYCARGYGYYVFDHWGQGTLVTVSSGSTSGGGSGGGSGGGGSSDVQITQSPSSLSASVGDRVTITCRTSRSISQYLAWYQQKPGKVPKLLIYSGSTLQSGVPSRFSGSGSGTDFTLTISSLQPEDVATYYCQQHNENPLTFGGGTKVEIKEPKSCDKTHTCPPCGGGSSGGGSGGQPREPQVYTLPPSRDELTKNQVSLTCLVKGFYPSDIAVEWESNGQPENNYKTTPPVLDSDGSFFLYSKLTVDKSRWQQGNVFSCSVMHEALHNHYTQKSLSLSPGK
binds: all assays above
